Laboratory results taken from paper PMC3137634.

Amino acid sequences for entries named in this document (tags omitted). A change or cut given only in a name is not applied to a line headed by its entry. Residues count along the entry.
UniProt O60603: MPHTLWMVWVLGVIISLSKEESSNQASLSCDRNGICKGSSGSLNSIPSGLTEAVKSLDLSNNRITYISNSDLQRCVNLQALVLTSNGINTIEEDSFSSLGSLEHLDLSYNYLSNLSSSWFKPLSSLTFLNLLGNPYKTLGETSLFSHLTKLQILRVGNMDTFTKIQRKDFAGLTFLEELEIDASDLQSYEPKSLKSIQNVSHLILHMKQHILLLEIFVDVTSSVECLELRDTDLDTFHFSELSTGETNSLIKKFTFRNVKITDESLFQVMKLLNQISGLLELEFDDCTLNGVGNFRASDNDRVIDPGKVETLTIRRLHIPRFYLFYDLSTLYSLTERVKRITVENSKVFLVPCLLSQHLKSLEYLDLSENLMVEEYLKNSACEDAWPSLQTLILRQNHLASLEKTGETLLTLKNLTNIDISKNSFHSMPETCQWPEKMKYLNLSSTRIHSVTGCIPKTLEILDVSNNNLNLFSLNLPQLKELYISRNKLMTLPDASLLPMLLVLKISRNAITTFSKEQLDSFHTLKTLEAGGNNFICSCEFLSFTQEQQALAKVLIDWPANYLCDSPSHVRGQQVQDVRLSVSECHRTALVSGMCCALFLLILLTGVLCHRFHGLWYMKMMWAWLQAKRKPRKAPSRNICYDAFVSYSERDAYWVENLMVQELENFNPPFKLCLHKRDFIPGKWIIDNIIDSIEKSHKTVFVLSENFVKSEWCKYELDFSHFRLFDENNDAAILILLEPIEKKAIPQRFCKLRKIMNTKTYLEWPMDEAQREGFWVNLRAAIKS
UniProt O00206, residues 24-839: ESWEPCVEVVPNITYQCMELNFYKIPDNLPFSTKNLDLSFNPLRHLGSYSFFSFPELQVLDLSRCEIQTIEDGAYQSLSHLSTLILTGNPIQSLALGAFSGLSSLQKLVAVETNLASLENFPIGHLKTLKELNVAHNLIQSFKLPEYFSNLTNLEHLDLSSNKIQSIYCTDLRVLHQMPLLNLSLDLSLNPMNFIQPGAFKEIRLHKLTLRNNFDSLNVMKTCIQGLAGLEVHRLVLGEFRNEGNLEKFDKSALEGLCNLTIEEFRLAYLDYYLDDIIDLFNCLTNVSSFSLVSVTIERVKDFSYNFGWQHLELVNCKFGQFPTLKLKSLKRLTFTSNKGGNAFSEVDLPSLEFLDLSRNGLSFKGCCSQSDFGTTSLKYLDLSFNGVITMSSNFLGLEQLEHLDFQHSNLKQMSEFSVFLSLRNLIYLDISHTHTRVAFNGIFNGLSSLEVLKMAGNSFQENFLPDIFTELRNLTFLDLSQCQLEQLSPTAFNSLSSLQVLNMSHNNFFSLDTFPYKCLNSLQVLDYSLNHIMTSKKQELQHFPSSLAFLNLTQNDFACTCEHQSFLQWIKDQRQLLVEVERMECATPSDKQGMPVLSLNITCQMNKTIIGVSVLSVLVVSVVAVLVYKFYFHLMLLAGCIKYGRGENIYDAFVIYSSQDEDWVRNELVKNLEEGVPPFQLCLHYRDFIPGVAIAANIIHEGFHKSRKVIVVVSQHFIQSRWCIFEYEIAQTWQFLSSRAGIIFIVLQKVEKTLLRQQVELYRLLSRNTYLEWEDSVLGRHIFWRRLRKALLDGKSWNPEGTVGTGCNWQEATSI
UniProt O25636: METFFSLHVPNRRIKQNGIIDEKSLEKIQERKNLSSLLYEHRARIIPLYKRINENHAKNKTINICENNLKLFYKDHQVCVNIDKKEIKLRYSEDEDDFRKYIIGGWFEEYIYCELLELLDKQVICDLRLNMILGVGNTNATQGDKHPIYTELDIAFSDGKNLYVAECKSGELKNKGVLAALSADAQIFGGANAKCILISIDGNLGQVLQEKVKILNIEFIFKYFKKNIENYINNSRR

Tests used:
[1] = biological target: TLR2 (human (endogenous in Thp1)) (UniProt O60603); test: flow cytometry on cells; Thp1 differentiated macrophages treated with rHP986 and stained with antibodies specific to TLR4, TLR2 and TNFR1; what is shown is the receptors' expression; only the binder purified
[2] = biological target: TLR4 (human (endogenous in Thp1)) (UniProt O00206); test: as above

Substance: recombinant HP986 (from UniProt O25636)
- binding [1]: no binding
- binding [2]: no binding

Results are given in words; binding and its absence hold for the method and conditions named.
